Patent US20090068178A1
No constants are given. Whether binding was seen depends on the method and setting. Some binding calls cover weakened binding; strength is not graded here.

Amino acid sequences for entries named in this document (tags omitted). A change or cut given only in a name is not applied to a line headed by its entry.
UniProt P40259: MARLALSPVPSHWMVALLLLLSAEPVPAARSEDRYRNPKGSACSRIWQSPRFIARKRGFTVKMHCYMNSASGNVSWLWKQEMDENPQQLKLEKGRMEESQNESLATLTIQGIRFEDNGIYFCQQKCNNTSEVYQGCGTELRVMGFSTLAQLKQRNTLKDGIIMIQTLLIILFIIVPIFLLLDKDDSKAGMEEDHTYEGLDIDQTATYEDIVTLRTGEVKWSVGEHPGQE

Key:
[1] = molecular target: T1, human CD79b (TAHO5) 21 mer peptide (human); test: antibody pre-incubated with the 21mer peptide (antibody: peptide 1:10), then FACS on BJAB cells
T1 sequence (peptide): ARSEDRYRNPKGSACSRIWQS

[2] = molecular target: ECD portion of the human CD79b (TAHO5) protein (human) (UniProt P40259); test: antibody pre-incubated with the ECD protein (antibody: protein 1:3), then FACS on BJAB cells

binding [1]: binds
binding [2]: binds
B1: anti-human CD79b (TAHO5) antibody (SN8) (antibody, human IgG1, kappa, V domains shown)
VH: EVQLQQSGAELMKPGASVKISCKATGYTFSSYWIEWVKQRPGHGLEWIGEILPGGGDTNYNEIFKGKATFTADTSSNTAYMQLSSLTSEDSAVYYCTRRVPVYFDYWGQGTSVTVSS
VL: DIVLTQSPASLAVSLGQRATISCKASQSVDYDGDSFLNWYQQKPGQPPKLFIYAASNLESGIPARFSGSGSGTDFTLNIHPVEEEDAATYYCQQSNEDPLTFGAGTELELKR
